Test results as given in PMC12040169 (PLOS Biology, 2025).
The other results are listed elsewhere or left out.

What follows are molecules tested on T1, CTL2-GFP (C. trachomatis L2/434/Bu, GFP-expressing). Settings: bulk GFP, single well; 28.5 h, 10 µM; inhibitor.
T1 construct: L2/434/Bu, GFP-expressing
Design: species or system HeLa; Intracellular C. trachomatis growth in HeLa cells, bulk GFP fluorescence relative to DMSO

SMILES | % of control remaining
CSCCC(C(=O)O)N1CNC(=S)NC1 (centres unmarked) [CBK011382] | 100%
O=C(Nc1ccccc1-c1ccccc1)c1cc(-c2ccncc2)nc2ccc(Cl)cc12 [CBK267759] | 103.913%
CC1CCc2nc(NC(=O)C3CN(S(=O)(=O)c4ccc(F)cc4)C3)sc2C1 (centres unmarked) [CBK286004] | 95.8893%
Cc1ccc2[nH]c3c(c2c1)CC(NS(=O)(=O)c1c(N)noc1C)CC3 (centres unmarked) [CBK306270] | 155.086%
O=C1N[C@@H](CC2CCCCC2)C(=O)N2CCN(C(=O)c3cccc(F)c3)C[C@H]12 [CBK289599] | 174.522%
O=C(O)c1ccc(-c2ccc(OC(F)(F)F)cc2)nc1 [CBK160173T] | 108.136%
COC(=O)CSc1nnc(CSc2cc(C)nc(N3CCOCC3)n2)o1 [CBK007059] | 124.771%
O=C(CSc1nnc(-c2ccncc2)n1Cc1ccccc1)Nc1ccc(Cl)cc1 [CBK269346] | 133.259%
c1ccc2c(CCNc3nccnc3-c3ccoc3)c[nH]c2c1 [CBK036743] | 87.9158%
O=C(c1cncs1)N1CCn2nc(C(O)Cc3ccccc3)cc2C1 (centres unmarked) [CBK306754] | 113.373%
C=Cn1ncc(CN2C3CCC2CC(O)(c2ccc(F)cc2)C3)c1C (centres unmarked) [CBK282738] | 139.938%
Cc1ccc(NC(=O)OCCN2CCN(C)CC2)c(C)n1 [CBK200135] | 97.8009%
COc1ccc([C@@]23CCC(NC(=O)CCc4cccnc4)C[C@@H]2N(C)CC3)cc1OC (some centres unmarked) [CBK003770] | 91.7319%
O=C(c1ccc(OC(F)(F)F)cc1)N1CCC2(CCN(C(=O)c3ccoc3)C2)C1 (centres unmarked) [CBK131735] | 132.699%
COc1ccc(-c2ccc(=O)n(CC(=O)NC(C(=O)O)c3ccccc3)n2)c(F)c1 (centres unmarked) [CBK286769] | 149.501%
O=C(NCc1ccc(Cl)cc1)N1CCN(CCc2ccccc2)CC1 [CBK158922] | 91.0705%
CC(C)c1ccc(S(=O)(=O)Nc2ccc(C(=O)O)c(O)c2)cc1 [CBK299819] | 108.544%
FC(F)(F)c1ccnc(OCc2ccc(Cl)c(Cl)c2)c1 [CBK116623] | 120.621%
CN1CCN(S(=O)(=O)c2ccc(Oc3ccc([N+](=O)[O-])cc3)cc2)CC1 [CBK262248] | 88.0829%
O=C1NCCc2c1[nH]c1ccccc21 [CBK101624] | 88.4174%
N/C(=N/OC(=O)c1ccc2nsnc2c1)c1ncon1 [CBK263847] | 103.088%
Cc1ccc2nsnc2c1NC(=O)Cc1cccc2ccccc12 [CBK266279] | 188.878%
C=CCNC(=O)C1CCCN(c2nc3ccccc3n2C)C1 (centres unmarked) [CBK282872] | 107.481%
Cc1ccc(S(=O)(=O)NC(=O)Nc2cccc(NC(=O)NS(=O)(=O)c3ccc(C)cc3)n2)cc1 [CBK296102] | 123.764%
Cn1cc(CCN2CCC(C(=O)NC(=O)Nc3ccccc3)CC2)c2ccccc21 [CBK034867] | 126.711%
O=C1NCC2(CCN(C(=O)c3ccco3)CC2)Oc2ccccc21 [CBK282919] | 73.3207%

In another format: entries from further up
SMILES	% of control remaining
O=C(c1cncs1)N1CCn2nc(C(O)Cc3ccccc3)cc2C1 (centres unmarked) [CBK306754]	113.373%
C=Cn1ncc(CN2C3CCC2CC(O)(c2ccc(F)cc2)C3)c1C (centres unmarked) [CBK282738]	139.938%

Remaining list, next part.

SMILES | % of control remaining
O=c1c(Cl)c(O)c2ccccc2n1Cc1ccccc1 [CBK291164] | 120.512%
C[C@@H]1CN(Cc2ccco2)CCN1C(=O)c1nccc2ccccc12 [CBK285489] | 91.3132%
COc1ccc(CC(=O)NC2CC(C)(C)Cc3c2cnn3C)cc1 (centres unmarked) [CBK282886] | 123.57%
O=C1NC/C=C/CC2(CCN(Cc3c[nH]c4ccccc34)CC2)C(=O)NCCOc2ccccc21 [CBK292085] | 155.787%
CCc1nc2ccc(C(=O)Nc3cccc(OC)c3)cn2c1N(C)Cc1cccs1 [CBK145522] | 108.579%
CC(C)OC(=O)N1CCC(N(C)Cc2ccc(-c3ccc(S(C)(=O)=O)cc3)nc2)CC1 [CBK165261T] | 128.241%
O=S(=O)(Nc1cccc(-c2nnn[nH]2)c1)c1cc(Br)c(Cl)s1 [CBK160374] | 131.877%
CCc1cc(S(=O)(=O)NC2CC(C)(C)NC(C)(C)C2)ccc1OC [CBK270097] | 107.562%
CCOC(=O)C1(C)C=C(Nc2cccc(C)c2)C(=O)N1c1ccccc1 (centres unmarked) [CBK263757] | 122.468%
CCOc1sc(=S)n(C)c1C(C)=O [CBK019515] | 108.254%
O=C(COc1ccccc1)Nc1ccccc1Sc1ncnc2sc3c(c12)CCCC3 [CBK266171] | 178.304%
CN(c1ccccc1)C1CCN(c2nc3c(cnn3C)c(=O)[nH]2)CC1 [CBK305215] | 133.88%
COC(=O)c1c(NC(=O)C(=O)NCc2ccccn2)sc2c1CCCC2 [CBK269505] | 110.078%
CC(=O)Nc1cc(C(=O)NCCc2ccccc2)ccc1S(=O)(=O)c1ccc(C)cc1 [CBK071771] | 120.536%
CC(C)c1cc(C(=O)N[C@@H]2CCOC[C@H]2Oc2ccc(CO)cc2)on1 [CBK306554] | 90.6725%
COc1cc(C(C)NC2CCN(c3nc(C)cs3)CC2)ccn1 (centres unmarked) [CBK304247] | 116.729%
NNC(=O)c1ccc(Oc2ccc(C(=O)NN)cc2)cc1 [CBK260995] | 112.841%
COc1ccccc1N1C(=O)CC(N2CCC(C(N)=O)(N3CCCCC3)CC2)C1=O (centres unmarked) [CBK265533] | 100%
CC(=O)N[C@@H](Cc1ccccc1)C(=O)N1CC[C@H]2NC(=O)[C@H](Cc3ccccc3)NC(=O)C3(C/C=C/C[C@@H]2C1)CCOCC3 [CBK292190] | 120.444%
COCCCNc1nc2c(-c3ccc(Cl)cc3)nnn2c2ccccc12 [CBK287770] | 122.397%
CS(=O)(=O)N(Cc1ccccc1)c1ccc(C(=O)N/N=C/c2ccccc2C(F)(F)F)cc1 [CBK262711] | 101.328%
Cc1ccc(C2=CCN(CC(=O)Nc3nc(C)c(C)s3)CC2)o1 [CBK283607] | 102.838%
CN(C)S(=O)(=O)N(CC(=O)NCc1ccco1)c1ccccc1 [CBK267971] | 129.989%
NCCn1cc(C(=O)N2Cc3cnn(Cc4ccc(F)cc4)c3C2)nn1 [CBK307461] | 121.295%
COc1ccc(-c2[nH]c(=S)ncc2-c2ccccc2)c(O)c1 [CBK288447] | 112.059%
O=C(O)c1ccccc1N1C(=O)C2CC=C(Cl)CC2C1=O (centres unmarked) [CBK287007] | 135.273%

SMILES | % of control remaining
Clc1ccc(N2CCN(c3cnc4ccccc4n3)CC2)cc1Cl [CBK066903] | 103.211%
COc1ccc(-c2nc(C3CCN(C(=O)NC(C)(C)C)CC3)n3ccccc23)cc1 [CBK047080] | 112.35%
COc1ccc(C(C)NC(=O)c2cn[nH]c2-c2ccc(Cl)cc2)cc1 (centres unmarked) [CBK288065] | 124.799%
COc1ccc(-c2cc(C(=O)NCCS(C)(=O)=O)cnc2-c2ccc(Cl)cc2)cc1 [CBK037620] | 122%
Cc1ccc(SCCCNCCN(C)C)cc1 [CBK267807C] | 151.809%
COc1cccc(C(=O)NCCC(=O)N2CCc3c(nc[nH]c3=O)C2)c1 [CBK307231] | 93.7111%
CN(C)CCN(C)c1ccc(/C=C/c2ccccc2)cn1 [CBK037026] | 125.195%
CCc1ccc(CN2CCC(Oc3ccccc3F)(C(=O)O)CC2)nc1 [CBK307528] | 127.569%
O=C(O)c1cc(-c2ccco2)nc2ccccc12 [CBK027882] | 112.796%
O=C(c1cccnc1)N1CCCC2(CCN(C(=O)c3ccoc3)C2)C1 (centres unmarked) [CBK131640] | 110.481%
Cc1noc(C)c1C(=O)N1CCN(Cc2ccccc2)CC1 [CBK200173] | 95.0879%
CC(C)Nc1ccc(S(=O)(=O)N(Cc2ccccc2)Cc2ccccc2)cn1 [CBK267307] | 105.139%
O=C(NCc1ccco1)[C@H]1CN2CCC1C[C@@H]2Cn1cc(CO)nn1 (some centres unmarked) [CBK289080] | 112.638%
CC(c1ccccc1)N1CCn2c(nc3cc(NC(=O)COc4ccccc4)ccc32)C1 (centres unmarked) [CBK268033] | 92.6051%
COc1cc(C(=O)N2CCC3(CC2)CC(=O)c2ccc(-c4ccc(NS(C)(=O)=O)cc4)cc2O3)cc(OC)c1C [CBK170163] | 130.338%
COc1ccc(C)cc1S(=O)(=O)N(CC(=O)O)c1ccc(C)c(Cl)c1 [CBK269655] | 119.818%
CC(C)n1cnc2ccc(-c3noc(-c4nccc5ccccc45)n3)cc21 [CBK288617] | 106.671%
CNS(=O)(=O)c1cccc(C(C)NC(=O)N2CCC(COC)CC2)c1 (centres unmarked) [CBK304087] | 112.804%
O=C(CCC1CCCC1)n1ccn(CCc2cccs2)c1=O [CBK106611] | 109.255%
COc1cc(C(C)=O)ccc1OCC(O)Cn1c(=O)n(-c2ccccc2)c(=O)c2ccccc21 (centres unmarked) [CBK296677] | 121.395%
C=CCn1c(Cc2csc(NC(=O)c3ccc(C)c(F)c3)n2)n[nH]c1=S [CBK295307] | 170.36%
S=c1[nH]nc(CSc2nc3ccccc3[nH]2)n1-c1ccccc1 [CBK267133] | 146.126%
CN(C)CCCNC(=O)CCc1ccccc1 [CBK263806] | 133.663%
CC(C)(Oc1cccc2ccccc12)C(=O)O [CBK012409] | 125.328%
O=C1NC2=NOCCC2=CN1[C@H]1C[C@@H](O)[C@@H](CO)O1 [CBK201192] | 148.218%
